PubChem BioAssay AID1053208 – Peter MacCallum Cancer Centre | 2014

- Screen: 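Genes whose silencing cuts survival of bone tumour cells only with doxorubicin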 (primary screen)
- System: mouse osteosarcoma cells, early-passage culture from an engineered mouse model of fibroblastic bone tumour
- Reagents: siRNA pool against mouse genes, 40 nM
- Timing: about 120 h (48 h before drug, then 72 h with drug)
- Challenge: doxorubicin 100 nM for 72 h, roughly 30-40% inhibitory dose
- Measured: 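Viability read as ATP luminescence after 72 h of 100 nM doxorubicin or none, duplicate wells averaged, scaled to non-targeting siRNA, then expressed as robust z-scores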
- Scale: viability z-score with doxorubicin and doxorubicin viability vs non-targeting: higher = more viable cells under doxorubicin; viability z-score without drug: higher = more viable cells with knock-down alone; z-score of drug to no-drug ratio: higher = less drug sensitisation by knock-down
- Hit rule: 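a pool counts as active when its viability z-score with doxorubicin is -2 or below and its z-score without drug lies between -2 and 2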
The deposit covers about 17,000 reagents; below is a part drawn at random. In the full data, 788 (4.7%) got an active call. 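Calls rest on z-score classes alone; an extra cut-off of viability at most 70% of control was not applied to them.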 The numbers tell different reagents against one gene apart.

| target gene | reagent no. | combined z-score class | viability z-score with doxorubicin | viability z-score without drug | z-score of drug to no-drug ratio | doxorubicin viability vs non-targeting | call |
| --- | --- | --- | --- | --- | --- | --- | --- |
| Cd300lb | 1 | no change with or without drug | 1.01 | 0.17 | 1.01 | 1.03 | inactive |
| Rnft1 | 1 | no change with or without drug | -0.67 | -0.17 | -0.45 | 0.88 | inactive |
| Efr3a | 1 | no change with or without drug | -0.67 | -0.17 | -0.45 | 0.88 | inactive |
| Efr3a | 2 | no change with or without drug | 1.46 | -1.18 | 2.7 | 1.07 | inactive |
| Tead3 | 1 | no change with or without drug | 0.45 | 0.17 | 0.45 | 0.98 | inactive |
| Bdp1 | 1 | low cell count with doxorubicin only | -2.25 | -0.67 | -1.91 | 0.74 | active |
| Slc29a1 | 1 | high cell count without drug only | -0.45 | 2.7 | -1.91 | 0.9 | inactive |
| Aadac | 1 | no change with or without drug | -0.34 | -1.52 | 0.9 | 0.91 | inactive |
| Myo7b | 1 | no change with or without drug | 0.56 | 1.52 | -0.34 | 0.99 | inactive |
| Eaf2 | 1 | no change with or without drug | 1.01 | -0.84 | 1.8 | 1.03 | inactive |
| Wnk3 | 1 | no change with or without drug | 1.12 | 1.69 | 0.11 | 1.04 | inactive |
| Rgs11 | 1 | no change with or without drug | 0 | -1.69 | 1.46 | 0.94 | inactive |
| Junb | 1 | no change with or without drug | 0.22 | 1.35 | -0.56 | 0.96 | inactive |
| Ankzf1 | 1 | no change with or without drug | 0 | 1.35 | -0.79 | 0.94 | inactive |
| Fam20c | 1 | no change with or without drug | 0.9 | 0.17 | 0.9 | 1.02 | inactive |
| 4933402J07Rik | 1 | no change with or without drug | 0.45 | -1.35 | 1.69 | 0.98 | inactive |
| Rbmxl1 | 1 | no change with or without drug | -0.22 | 0.17 | -0.22 | 0.92 | inactive |
| Srbd1 | 1 | no change with or without drug | -0.22 | -0.17 | 0 | 0.92 | inactive |
| Thsd1 | 1 | high cell count with doxorubicin only | 2.92 | 1.18 | 2.25 | 1.2 | inactive |
| Vim | 1 | no change with or without drug | -0.22 | 0.84 | -0.67 | 0.92 | inactive |
| Defa1 | 1 | no change with or without drug | 0.22 | 0.84 | -0.22 | 0.96 | inactive |
| Tnfrsf1b | 1 | no change with or without drug | 0.67 | -0.17 | 0.9 | 1 | inactive |
| Myoz3 | 1 | no change with or without drug | 0.56 | 0.17 | 0.56 | 0.99 | inactive |
| Epha2 | 1 | no change with or without drug | 0.34 | -0.17 | 0.56 | 0.97 | inactive |
| Atp13a4 | 1 | no change with or without drug | -1.69 | -1.18 | -0.9 | 0.79 | inactive |
| Pigh | 1 | high cell count with doxorubicin only | 2.02 | 1.85 | 0.9 | 1.12 | inactive |
| Cfap206 | 1 | no change with or without drug | -0.67 | 0.67 | -1.01 | 0.88 | inactive |
| Depdc5 | 1 | no change with or without drug | 0.34 | 1.18 | -0.34 | 0.97 | inactive |
| Adtrp | 1 | high cell count with doxorubicin only | 3.15 | 1.18 | 2.47 | 1.22 | inactive |
| Dlgap1 | 1 | high cell count with doxorubicin only | 3.26 | 1.52 | 2.25 | 1.23 | inactive |
| Nkx2-5 | 1 | no change with or without drug | 0.67 | -0.17 | 0.9 | 1 | inactive |
| Cdc25b | 1 | no change with or without drug | 0.45 | -0.51 | 1.01 | 0.98 | inactive |
| 4933427D14Rik | 1 | no change with or without drug | -1.35 | -0.17 | -1.24 | 0.82 | inactive |
| Tmc7 | 1 | no change with or without drug | 1.01 | 0.17 | 1.01 | 1.03 | inactive |
| Fam117a | 1 | no change with or without drug | -0.9 | 0.84 | -1.35 | 0.86 | inactive |
| Rpl37 | 1 | low cell count with and without drug | -3.82 | -4.89 | -0.79 | 0.6 | inactive |
| Sox1 | 1 | high cell count with doxorubicin only | 2.36 | 0.51 | 2.14 | 1.15 | inactive |
| Mtcl1 | 1 | no change with or without drug | -1.01 | -0.51 | -0.67 | 0.85 | inactive |
| Epha3 | 1 | no change with or without drug | -1.12 | -1.35 | -0.11 | 0.84 | inactive |
| Dclre1b | 1 | high cell count with doxorubicin only | 2.81 | 1.52 | 1.8 | 1.19 | inactive |
| Matn4 | 1 | no change with or without drug | -1.46 | 1.18 | -2.14 | 0.81 | inactive |
| Vtcn1 | 1 | no change with or without drug | -0.67 | -0.51 | -0.22 | 0.88 | inactive |
| Spn | 1 | no change with or without drug | -0.45 | -0.51 | 0 | 0.9 | inactive |
| Vmn1r72 | 1 | no change with or without drug | 1.69 | 0.67 | 1.35 | 1.09 | inactive |
| Suz12 | 1 | no change with or without drug | 0.9 | -0.67 | 1.57 | 1.02 | inactive |
| Atp6v1e2 | 1 | no change with or without drug | 0.67 | 0.17 | 0.67 | 1 | inactive |
| Cdh17 | 1 | no change with or without drug | -1.01 | -0.51 | -0.67 | 0.85 | inactive |
| Akap10 | 1 | no change with or without drug | -0.56 | 1.18 | -1.24 | 0.89 | inactive |
| Enox1 | 1 | no change with or without drug | -0.67 | -0.34 | -0.34 | 0.88 | inactive |
| Trpm2 | 1 | no change with or without drug | -1.01 | 1.18 | -1.69 | 0.85 | inactive |

Called active (from the list above):
| target gene | reagent no. | combined z-score class | viability z-score with doxorubicin | viability z-score without drug | z-score of drug to no-drug ratio | doxorubicin viability vs non-targeting | call |
| --- | --- | --- | --- | --- | --- | --- | --- |
| Bdp1 | 1 | low cell count with doxorubicin only | -2.25 | -0.67 | -1.91 | 0.74 | active |
